Some results were stated once for a whole list of compounds, not compound by compound.
Target: T1, PARP1 (Homo sapiens, UniProt P09874)
T1 construct: purchased Trevigen
Assay: Determination of PARP1 inhibitory activity (Universal PARP colorimetric assay kit, Trevigen)
Type: biochemical
Details: PARP1, OD at 450 nm, Logit method
Experimental: Determination of PARP1 inhibitory activity
Method for determining PARP1 inhibitory activity:
(1) adding 50 μL of 1X PARP Buffer to each well, incubating for 30 min at room temperature, and drying;
(3) adding 25 μL of 1X PARP1 cocktail to each well and incubating for 60 min at room temperature;

Sequences of proteins named here, by UniProt entry; tags and fusion partners are left off.
UniProt P09874, whole entry: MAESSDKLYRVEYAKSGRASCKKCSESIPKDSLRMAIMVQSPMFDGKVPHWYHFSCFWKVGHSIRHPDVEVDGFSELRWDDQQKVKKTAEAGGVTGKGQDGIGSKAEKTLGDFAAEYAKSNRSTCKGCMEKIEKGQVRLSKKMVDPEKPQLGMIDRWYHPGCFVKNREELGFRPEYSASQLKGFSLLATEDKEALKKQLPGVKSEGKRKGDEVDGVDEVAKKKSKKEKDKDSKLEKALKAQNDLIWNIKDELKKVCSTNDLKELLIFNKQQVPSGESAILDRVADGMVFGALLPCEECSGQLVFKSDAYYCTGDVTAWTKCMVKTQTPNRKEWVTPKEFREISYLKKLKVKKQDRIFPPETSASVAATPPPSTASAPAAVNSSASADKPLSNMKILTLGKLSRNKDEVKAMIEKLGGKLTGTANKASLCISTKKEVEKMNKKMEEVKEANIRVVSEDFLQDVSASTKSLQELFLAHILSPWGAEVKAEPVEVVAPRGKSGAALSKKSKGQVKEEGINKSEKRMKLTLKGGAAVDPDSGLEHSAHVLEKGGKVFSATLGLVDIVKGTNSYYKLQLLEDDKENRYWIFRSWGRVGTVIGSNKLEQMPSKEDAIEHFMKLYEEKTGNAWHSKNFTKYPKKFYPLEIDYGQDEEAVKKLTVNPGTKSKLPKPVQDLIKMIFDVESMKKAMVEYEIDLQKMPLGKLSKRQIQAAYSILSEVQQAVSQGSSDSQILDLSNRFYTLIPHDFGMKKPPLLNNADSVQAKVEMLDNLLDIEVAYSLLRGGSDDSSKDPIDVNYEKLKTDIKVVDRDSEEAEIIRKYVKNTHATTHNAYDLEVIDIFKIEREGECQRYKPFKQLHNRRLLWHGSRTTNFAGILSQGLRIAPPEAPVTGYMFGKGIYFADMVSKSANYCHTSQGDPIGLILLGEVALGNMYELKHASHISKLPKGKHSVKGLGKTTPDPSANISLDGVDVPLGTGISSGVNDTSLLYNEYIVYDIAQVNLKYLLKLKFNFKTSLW

CC1=CN2C(=Nc3cccc4c(=O)[nH]nc2c34)C=C1 [Compound 9]
IC50 (nM): at the nM level

From patent publication US10669274B2, “Azaphenalene-3-one derivative, preparation method therefor, and application therof” (SUZHOU KANGRUN PHARMACEUTICALS INC., priority 2017, dated 2020)
